# Laboratory results from the supplement of paper PMC6411743.
# Amino acid sequences for entries named in this document (tags omitted). A change or cut given only in a name is not applied to a line headed by its entry.
# UniProt Q68DK2: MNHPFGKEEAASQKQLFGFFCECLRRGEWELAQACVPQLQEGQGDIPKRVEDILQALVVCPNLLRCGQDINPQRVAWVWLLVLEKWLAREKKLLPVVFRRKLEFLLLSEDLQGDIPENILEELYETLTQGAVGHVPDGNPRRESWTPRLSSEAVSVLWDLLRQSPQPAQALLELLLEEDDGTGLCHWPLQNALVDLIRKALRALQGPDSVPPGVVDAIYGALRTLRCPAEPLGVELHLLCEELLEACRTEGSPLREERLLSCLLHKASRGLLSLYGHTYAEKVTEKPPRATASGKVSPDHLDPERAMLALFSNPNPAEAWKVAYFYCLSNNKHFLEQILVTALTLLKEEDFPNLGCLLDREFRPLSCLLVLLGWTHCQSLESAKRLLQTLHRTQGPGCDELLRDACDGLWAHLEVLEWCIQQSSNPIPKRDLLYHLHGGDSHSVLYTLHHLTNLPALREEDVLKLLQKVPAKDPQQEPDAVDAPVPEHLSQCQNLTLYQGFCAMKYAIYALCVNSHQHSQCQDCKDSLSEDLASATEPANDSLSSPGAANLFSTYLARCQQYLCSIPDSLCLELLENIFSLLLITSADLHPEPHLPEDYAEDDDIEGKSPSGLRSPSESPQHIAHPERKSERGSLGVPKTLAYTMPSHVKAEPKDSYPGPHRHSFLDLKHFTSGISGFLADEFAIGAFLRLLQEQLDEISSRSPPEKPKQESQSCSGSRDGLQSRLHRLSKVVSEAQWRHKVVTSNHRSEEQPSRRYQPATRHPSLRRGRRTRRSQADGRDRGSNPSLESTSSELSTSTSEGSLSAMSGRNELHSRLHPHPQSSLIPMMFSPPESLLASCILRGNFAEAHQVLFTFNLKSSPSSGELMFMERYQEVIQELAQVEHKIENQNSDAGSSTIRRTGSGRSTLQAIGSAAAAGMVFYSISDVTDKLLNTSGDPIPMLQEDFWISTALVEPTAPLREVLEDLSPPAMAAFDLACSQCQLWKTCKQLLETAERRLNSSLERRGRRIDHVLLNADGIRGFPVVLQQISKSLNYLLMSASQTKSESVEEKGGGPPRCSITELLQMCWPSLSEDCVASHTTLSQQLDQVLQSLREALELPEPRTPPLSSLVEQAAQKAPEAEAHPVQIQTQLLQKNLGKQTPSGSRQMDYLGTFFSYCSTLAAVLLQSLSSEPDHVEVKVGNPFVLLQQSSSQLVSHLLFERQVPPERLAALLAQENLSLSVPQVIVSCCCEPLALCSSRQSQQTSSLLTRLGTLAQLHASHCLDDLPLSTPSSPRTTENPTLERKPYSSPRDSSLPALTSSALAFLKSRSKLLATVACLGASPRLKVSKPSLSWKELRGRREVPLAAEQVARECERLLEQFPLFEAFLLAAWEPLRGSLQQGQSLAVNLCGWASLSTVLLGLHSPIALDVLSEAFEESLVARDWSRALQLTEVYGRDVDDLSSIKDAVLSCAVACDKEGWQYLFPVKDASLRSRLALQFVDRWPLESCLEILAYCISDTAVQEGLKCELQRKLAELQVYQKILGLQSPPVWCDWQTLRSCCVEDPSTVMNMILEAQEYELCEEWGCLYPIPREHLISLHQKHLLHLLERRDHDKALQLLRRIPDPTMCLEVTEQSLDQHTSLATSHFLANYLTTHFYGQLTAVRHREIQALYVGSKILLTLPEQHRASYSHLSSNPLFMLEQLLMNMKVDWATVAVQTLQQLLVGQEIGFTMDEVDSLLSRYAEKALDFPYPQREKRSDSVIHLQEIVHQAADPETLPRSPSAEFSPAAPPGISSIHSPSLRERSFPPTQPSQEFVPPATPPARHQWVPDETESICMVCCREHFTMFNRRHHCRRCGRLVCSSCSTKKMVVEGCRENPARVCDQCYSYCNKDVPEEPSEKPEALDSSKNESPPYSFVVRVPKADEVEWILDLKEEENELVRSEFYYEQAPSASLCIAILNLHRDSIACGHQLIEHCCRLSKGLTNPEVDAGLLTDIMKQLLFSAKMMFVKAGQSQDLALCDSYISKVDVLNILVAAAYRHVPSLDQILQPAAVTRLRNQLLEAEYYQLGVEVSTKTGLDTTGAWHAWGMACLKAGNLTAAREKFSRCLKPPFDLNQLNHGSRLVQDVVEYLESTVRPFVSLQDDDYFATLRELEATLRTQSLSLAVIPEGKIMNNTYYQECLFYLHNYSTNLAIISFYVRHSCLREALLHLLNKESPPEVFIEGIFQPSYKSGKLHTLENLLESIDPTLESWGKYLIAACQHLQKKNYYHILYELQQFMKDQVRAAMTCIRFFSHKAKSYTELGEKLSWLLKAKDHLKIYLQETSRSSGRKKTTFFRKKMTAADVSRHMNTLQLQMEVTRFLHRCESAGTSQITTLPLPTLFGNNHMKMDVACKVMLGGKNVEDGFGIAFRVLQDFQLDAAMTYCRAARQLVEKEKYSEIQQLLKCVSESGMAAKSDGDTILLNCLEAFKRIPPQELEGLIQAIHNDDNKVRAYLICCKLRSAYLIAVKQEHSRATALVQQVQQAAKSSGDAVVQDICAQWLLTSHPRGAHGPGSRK
# UniProt Q5JTD0: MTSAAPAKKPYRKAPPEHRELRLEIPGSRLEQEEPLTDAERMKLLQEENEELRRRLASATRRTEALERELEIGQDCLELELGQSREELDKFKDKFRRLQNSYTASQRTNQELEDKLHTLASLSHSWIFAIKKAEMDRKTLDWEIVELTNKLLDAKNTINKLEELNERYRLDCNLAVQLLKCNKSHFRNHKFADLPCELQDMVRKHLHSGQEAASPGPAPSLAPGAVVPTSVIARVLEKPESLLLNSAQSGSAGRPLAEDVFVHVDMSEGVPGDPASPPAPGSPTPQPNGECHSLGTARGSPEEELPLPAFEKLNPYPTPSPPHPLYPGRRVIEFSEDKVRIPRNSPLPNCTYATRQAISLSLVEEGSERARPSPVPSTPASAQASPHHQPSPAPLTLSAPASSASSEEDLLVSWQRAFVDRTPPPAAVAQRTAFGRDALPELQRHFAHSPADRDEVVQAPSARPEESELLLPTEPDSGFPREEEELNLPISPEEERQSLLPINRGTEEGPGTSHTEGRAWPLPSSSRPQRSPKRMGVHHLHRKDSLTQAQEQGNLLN
# UniProt Q6IA86: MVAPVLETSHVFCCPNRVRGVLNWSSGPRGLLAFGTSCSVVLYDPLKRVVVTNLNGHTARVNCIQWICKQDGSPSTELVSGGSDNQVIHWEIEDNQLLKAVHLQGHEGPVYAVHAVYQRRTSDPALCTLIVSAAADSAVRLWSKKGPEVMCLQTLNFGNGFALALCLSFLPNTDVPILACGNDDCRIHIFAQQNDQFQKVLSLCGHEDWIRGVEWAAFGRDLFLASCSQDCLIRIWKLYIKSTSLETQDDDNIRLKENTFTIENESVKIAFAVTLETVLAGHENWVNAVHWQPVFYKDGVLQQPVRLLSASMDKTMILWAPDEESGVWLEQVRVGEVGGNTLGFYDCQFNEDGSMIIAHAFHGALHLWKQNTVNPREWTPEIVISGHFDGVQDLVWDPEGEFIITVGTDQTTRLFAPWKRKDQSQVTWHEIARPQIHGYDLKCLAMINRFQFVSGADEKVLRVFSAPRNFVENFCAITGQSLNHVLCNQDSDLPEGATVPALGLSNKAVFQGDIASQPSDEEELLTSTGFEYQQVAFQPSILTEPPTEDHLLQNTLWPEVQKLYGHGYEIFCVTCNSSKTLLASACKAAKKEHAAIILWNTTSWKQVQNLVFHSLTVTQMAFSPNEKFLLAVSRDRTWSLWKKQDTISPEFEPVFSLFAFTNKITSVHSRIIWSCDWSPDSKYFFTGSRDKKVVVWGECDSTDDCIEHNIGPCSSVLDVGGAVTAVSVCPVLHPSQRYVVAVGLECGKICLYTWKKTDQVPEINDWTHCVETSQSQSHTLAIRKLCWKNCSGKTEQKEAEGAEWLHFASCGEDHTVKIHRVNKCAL
# UniProt Q58EX7: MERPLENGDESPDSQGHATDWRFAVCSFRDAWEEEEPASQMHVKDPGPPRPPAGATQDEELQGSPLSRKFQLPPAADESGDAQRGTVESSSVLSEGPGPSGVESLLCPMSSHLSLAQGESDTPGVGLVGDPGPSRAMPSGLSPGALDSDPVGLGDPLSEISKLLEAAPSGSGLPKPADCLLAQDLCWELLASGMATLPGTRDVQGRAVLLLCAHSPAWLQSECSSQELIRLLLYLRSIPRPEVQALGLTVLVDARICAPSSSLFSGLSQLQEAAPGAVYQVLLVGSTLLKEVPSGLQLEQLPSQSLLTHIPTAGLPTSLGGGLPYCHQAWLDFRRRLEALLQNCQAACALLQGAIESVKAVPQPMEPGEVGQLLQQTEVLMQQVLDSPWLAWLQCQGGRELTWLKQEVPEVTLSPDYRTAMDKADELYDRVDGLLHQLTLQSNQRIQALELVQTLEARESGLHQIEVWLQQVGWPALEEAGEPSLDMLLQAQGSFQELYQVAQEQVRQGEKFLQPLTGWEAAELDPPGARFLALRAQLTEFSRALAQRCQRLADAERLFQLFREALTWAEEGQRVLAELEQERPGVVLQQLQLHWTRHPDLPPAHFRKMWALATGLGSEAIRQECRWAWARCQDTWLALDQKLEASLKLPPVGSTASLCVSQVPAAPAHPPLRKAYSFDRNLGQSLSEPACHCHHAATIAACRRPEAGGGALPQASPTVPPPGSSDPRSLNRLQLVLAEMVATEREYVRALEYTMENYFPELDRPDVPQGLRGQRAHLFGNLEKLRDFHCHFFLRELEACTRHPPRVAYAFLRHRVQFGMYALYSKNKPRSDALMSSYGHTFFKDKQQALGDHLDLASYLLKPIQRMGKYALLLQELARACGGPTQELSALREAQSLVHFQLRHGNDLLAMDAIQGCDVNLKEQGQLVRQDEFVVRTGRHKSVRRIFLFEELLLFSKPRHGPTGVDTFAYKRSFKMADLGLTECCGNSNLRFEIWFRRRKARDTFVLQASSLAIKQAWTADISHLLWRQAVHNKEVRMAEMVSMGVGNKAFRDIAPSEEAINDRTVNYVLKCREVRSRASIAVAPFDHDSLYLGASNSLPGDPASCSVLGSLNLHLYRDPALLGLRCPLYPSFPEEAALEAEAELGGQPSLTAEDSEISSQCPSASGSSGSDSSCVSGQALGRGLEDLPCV
# UniProt Q9NSU2: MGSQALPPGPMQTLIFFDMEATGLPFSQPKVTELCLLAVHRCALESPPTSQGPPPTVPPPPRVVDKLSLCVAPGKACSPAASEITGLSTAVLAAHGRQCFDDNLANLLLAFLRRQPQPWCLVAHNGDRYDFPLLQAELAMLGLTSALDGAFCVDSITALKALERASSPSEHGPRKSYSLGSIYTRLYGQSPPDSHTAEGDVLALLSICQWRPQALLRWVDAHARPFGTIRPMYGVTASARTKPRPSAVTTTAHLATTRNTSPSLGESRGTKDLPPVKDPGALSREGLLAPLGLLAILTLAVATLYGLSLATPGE
# UniProt Q5BKZ1: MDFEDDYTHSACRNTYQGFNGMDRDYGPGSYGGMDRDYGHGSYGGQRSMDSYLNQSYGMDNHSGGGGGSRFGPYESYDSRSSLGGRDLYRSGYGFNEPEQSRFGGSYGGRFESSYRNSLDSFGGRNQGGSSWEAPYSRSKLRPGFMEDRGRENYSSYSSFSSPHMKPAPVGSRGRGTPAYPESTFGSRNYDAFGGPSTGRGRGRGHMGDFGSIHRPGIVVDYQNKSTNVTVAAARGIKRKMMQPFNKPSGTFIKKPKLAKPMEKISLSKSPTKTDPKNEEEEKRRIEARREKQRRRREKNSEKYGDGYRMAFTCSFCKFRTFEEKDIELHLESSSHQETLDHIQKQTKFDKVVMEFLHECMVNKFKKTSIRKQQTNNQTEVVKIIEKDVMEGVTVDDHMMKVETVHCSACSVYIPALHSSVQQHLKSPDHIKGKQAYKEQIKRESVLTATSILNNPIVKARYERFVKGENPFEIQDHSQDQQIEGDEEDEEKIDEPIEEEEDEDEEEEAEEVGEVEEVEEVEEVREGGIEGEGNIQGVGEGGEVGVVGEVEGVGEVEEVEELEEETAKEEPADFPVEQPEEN
# ± gives the standard deviation of the averaged measurements. This is a selection; strong and weak results do not stand in their true shares. Small differences around the control level are noise.
# Compound: Nc1ncnc2c1ncn2[C@@H]1O[C@H](COP(=O)(O)OP(=O)(O)OP(=O)(O)O)[C@@H](O)[C@H]1O [adenosine triphosphate]
# Test: NP40-soluble protein abundance relative to vehicle (solubility fold change) (ratio); higher = more soluble protein in presence of ATP
# Settings: concentration: 0.5mM
# Procedure, shortened: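 Crude Jurkat lysate, prepared by Dounce homogenisation, was exposed to eight concentrations from 0.1 to 10 mM for 10 min at room temperature and then 3 min at 37 °C. Solubilisation used 0.8% NP40 with benzonase for 60 min at 4 °C, followed by ultracentrifugation and TMT labelling of the supernatant for LC-MS/MS. After vsn normalisation of intensities, each value is the fold change against the detergent-processed vehicle within each replicate, across three independent experiments.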
row,Target,NP40-soluble protein abundance
1,UniProt Q68DK2 and related entries,0.984 ± 0.053
2,UniProt Q5JTD0 and related entries,0.954 ± 0.014
3,UniProt Q52LJ0-2,0.957 ± 0.017
4,UniProt Q6IA86 and related entries,1.05 ± 0.029
5,NADSYN1 (UniProt Q6IA69),1.01 ± 0.12
6,UniProt Q5W0U4 and related entries,1.06 ± 0.03
7,UniProt Q58EX7 and related entries,1.02 ± 0.083
8,Q5VV50 and related entries (UniProt Q5VV52),1.04 ± 0.029
9,UniProt Q6NYC1 and related entries,1.06 ± 0.051
10,UniProt Q5VSL9,0.9792 ± 0.0057
11,CCDC58 (UniProt Q4VC31),0.936 ± 0.1
12,UniProt Q5T3I0 and related entries,1.13 ± 0.12
13,FAM91A1 (UniProt Q658Y4),1.04 ± 0.018
14,UniProt Q5TDH0 and related entries,1.03 ± 0.054
15,ANKRD39 (UniProt Q53RE8),0.952 ± 0.062
16,UniProt Q5T6F0,0.947 ± 0.056
17,NT5DC1 (UniProt Q5TFE4),1.04 ± 0.057
18,UniProt Q5H8A4-5|Q5H8A4-6,1 ± 0.051
19,UniProt Q69YH5 and related entries,0.958 ± 0.028

# Reformatted tab-delimited: part of the list above.
row	Target	NP40-soluble protein abundance
1	UniProt Q68DK2 and related entries	0.984 ± 0.053
5	NADSYN1 (UniProt Q6IA69)	1.01 ± 0.12
7	UniProt Q58EX7 and related entries	1.02 ± 0.083

# Next part.

row,Target,NP40-soluble protein abundance
1,UniProt Q53HC9 and related entries,1.04 ± 0.067
2,UniProt Q5T5C0 and related entries,1.03 ± 0.12
3,CWF19L1 (UniProt Q69YN2),1.03 ± 0.032
4,UniProt Q53H47 and related entries,1.01 ± 0.028
5,SLC27A4 (UniProt Q6P1M0),1.02 ± 0.036
6,UniProt Q5VYS8 and related entries,1.06 ± 0.039
7,UniProt Q6IAA8,0.875 ± 0.12
8,RFWD3 (UniProt Q6PCD5),1.07 ± 0.08
9,DCAF15 (UniProt Q66K64),1.04 ± 0.14
10,Q5TZT0 and related entries (UniProt Q9NSU2),0.93 ± 0.081
11,UniProt Q4LE39 and related entries,1.02 ± 0.075
12,NOL9 (UniProt Q5SY16),0.919 ± 0.021
13,PRPF8 (UniProt Q6P2Q9),1.051 ± 0.0033
14,UniProt Q53TN4 and related entries,1.04 ± 0.094
15,PGM2L1 (UniProt Q6PCE3),1.02 ± 0.011
16,SMYD5 (UniProt Q6GMV2),0.9903 ± 0.002
17,NUP188 (UniProt Q5SRE5),1.06 ± 0.045
18,ZNF326 (UniProt Q5BKZ1),1.14 ± 0.028
